The numbers were not newly measured in US9724304B2, “Nanospheres for therapeutic agent delivery” (Temple University—Of The Commonwealth System of Higher …, priority 2012, dated 2017), which cites them from elsewhere.

For the data set the following is noted: at 25° C.

Structures are written as SMILES. Values after ≈ are worked out from the molar mass of the structure shown.

Usually aqueous solubility stands for the concentration that dissolves in the medium under given conditions. For `COc1ccc2c(c1)c(CC(=O)O)c(C)n2C(=O)c1ccc(Cl)cc1` [IDMC, indomethacin], the aqueous solubility is 35 µg/mL (≈ 97.8 µM).
